# Results published in patent publication US20070149483A1, “Methods and compounds for modulating triglyceride and vldl secretion” (priority 2003, published 2007).
# At least one compound was matched to its structure with a doubt left.
# Legend:
# [1] = test system: McA-RH7777 cells expressing human apoB100; test: Pulse-chase of [35S]apoB100 with rate flotation of conditioned medium and microsomal lumen; format: cell-based, rat; settings: oleate- vs EPA-treated cells, data not shown
# Procedure: (§1) Cell Culture and Fatty Acid Treatments—Transfected McA-RH7777 cells stably expressing human apoB100 (McLeod et al., 1994, J. Biol. Chem. 269, 2852-2862) were cultured in Dulbecco's modified Eagle's medium (DMEM) containing 10% fetal bovine serum (FBS), 10% horse serum and 200 μg/ml G418. Routinely, the cells were incubated with 0.4 mM fatty acids for 16-18 h in the presence of 20% FBS prior to experiments.
# [2] = test system: McA-RH7777 cells stably expressing human apoB100; test: Synthesis and secretion of [3H]glycerol-labelled TG and PC; format: cell-based, rat; settings: EPA- vs oleate-treated cells
# Procedure: as §1
# Other Assays—The TG transfer activity of MTP was determined according to published method (Wetterau et al., 1992, Science 258, 999-1001) with modifications (Wang et al., 1999). The phosphatidate phosphohydrolase activity was determined by an established method (Jamal et al., 1991, J. Biol. Chem. 266, 2988-2996). Lipid extraction and analysis by TLC was performed as previously described (Tran et al., 2000). Protein was determined using the BCA™ protein assay kit (Pierce).
# [3] = test system: McA-RH7777 cells stably expressing human apoB100; test: Pulse-chase (1 h pulse, up to 3 h chase) of apoB100 and apoA-I secretion efficiency; format: cell-based, rat
# Procedure: (§2) The cells were then incubated with chase medium for 15, 30 and 45 min. At the end of each chase time, the medium was collected and subjected to cumulative rate flotation centrifugation (Wang et al., 1999) to resolve apoB100-VLDL1 (Sf>100) and apoB100-VLDL2 (Sf 20-100) from other lipoproteins (i.e. IDL, LDL and HDL). The ^35S-apoB100 in each fraction was recovered by immunoprecipitation. Also, at the end of each chase time, the radiolabeled cells were harvested in 2 ml of ice-cold homogenization buffer (10 mM Tris-HCl, pH 7.4, 250 mM sucrose, 5 mM EDTA, and serine/cysteine protease inhibitor mixture), mixed with two 100-mm dishes of unlabeled cells, homogenized by passing ten times through a ball-bearing homogenizer, and subjected to subcellular fractionation and carbonate-treatment as described below.
# Oleate and EPA were present in both pulse and chase media. The [^35S]-apoB100 from total cell lysates (FIG. 2A) or conditioned media (FIG. 2B) was immunoprecipitated, resolved by SDS-PAGE, and visualized by fluorography. Radioactivity associated with [^35S]-apoB100 was quantified. As shown in the top panels of FIG. 2A to 2B, the data is expressed as absolute amount of radioactivity associated with [^35S]-apoB100 at the end of 1-h pulse. As shown in the […] panels of FIG. 2A to 2B, the data is expressed as percent of the initial counts associated with ^35S-apoB100 at the end of 1-h pulse. […]
# [4] = test system: McA-RH7777 cells stably expressing human apoB100; test: Pulse-chase with subcellular fractionation: membrane-associated apoB100 trafficking; format: cell-based, rat
# Procedure: as §2
# Subcellular Fractionation—Three subcellular fractions (i.e., ER, fractions 1 through 3; cis/medial Golgi, fractions 4 through 8; distal Golgi, fractions 9 through 15) were obtained from the cell lysates using Nycodenz gradient centrifugation (Hammond and Helenius, 1994, J. Cell Biol. 126, 41-52; Rickwood et al., 1982, Anal. Biochem. 123, 23-31) of the post-nuclear supernatant as previously described (Tran et al., 2002).
# Analysis of ApoB100 Associated with Membranes and Lumenal Contents of Microsomes—Lumenal contents were separated from membranes by sodium carbonate treatment followed by centrifugation (Tran et al., 2002). The ^35S-labelled apoB100 proteins associated with the membrane and lumen were recovered by immunoprecipitation and analyzed by SDS-PAGE/fluorography as previously described (Tran et al., 2002).
# The subcellular compartments were fractionated by Nycodenz gradient centrifugation, and membranes (FIG. 3A, at various chase times) and lumenal content (FIG. 3B, at 45 min chase) of ER, cis/medial Golgi, and distal Golgi were isolated by sodium carbonate treatment followed by ultracentrifugation. The ^35S-apoB100 was immunoprecipitated and resolved by SDS-PAGE/fluorography as described in the “Experimental Procedures”.
# [5] = test system: phosphatidate phosphohydrolase-1; test: Phosphatidate phosphohydrolase activity in treated cells; format: biochemical, rat; settings: EPA-treated cells, data not shown
# [6] = biological target: T1, MTP (Rattus norvegicus, UniProt D4A1W8); test: TG transfer activity of MTP in treated cells; format: biochemical; settings: EPA-treated cells, data not shown
# T1 construct: The TG transfer activity of MTP was determined according to published method; endogenous in cells; host or cells: McA-RH7777 rat hepatoma cells stably expressing human apoB100
# T1 sequence (D4A1W8 22-896): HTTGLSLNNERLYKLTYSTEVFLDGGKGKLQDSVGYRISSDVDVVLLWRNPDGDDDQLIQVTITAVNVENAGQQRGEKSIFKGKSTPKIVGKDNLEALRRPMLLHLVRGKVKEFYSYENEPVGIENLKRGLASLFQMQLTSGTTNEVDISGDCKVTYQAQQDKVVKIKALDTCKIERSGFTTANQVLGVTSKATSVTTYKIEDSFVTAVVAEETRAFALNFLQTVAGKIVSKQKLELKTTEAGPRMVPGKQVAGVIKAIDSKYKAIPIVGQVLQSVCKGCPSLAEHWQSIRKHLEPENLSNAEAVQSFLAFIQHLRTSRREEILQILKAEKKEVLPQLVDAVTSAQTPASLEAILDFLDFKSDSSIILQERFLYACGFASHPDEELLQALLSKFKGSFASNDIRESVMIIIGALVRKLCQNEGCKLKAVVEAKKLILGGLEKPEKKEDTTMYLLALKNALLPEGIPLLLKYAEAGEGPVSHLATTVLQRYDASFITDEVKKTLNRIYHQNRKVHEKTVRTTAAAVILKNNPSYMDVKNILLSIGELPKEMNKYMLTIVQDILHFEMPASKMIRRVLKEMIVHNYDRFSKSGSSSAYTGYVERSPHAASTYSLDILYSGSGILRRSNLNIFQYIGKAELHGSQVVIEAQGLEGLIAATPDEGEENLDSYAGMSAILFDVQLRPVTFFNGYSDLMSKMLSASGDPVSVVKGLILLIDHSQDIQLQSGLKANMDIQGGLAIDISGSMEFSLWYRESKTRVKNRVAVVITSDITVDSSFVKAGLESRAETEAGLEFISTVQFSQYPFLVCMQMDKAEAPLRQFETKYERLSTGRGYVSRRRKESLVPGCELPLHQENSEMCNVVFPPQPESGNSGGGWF
# [7] = test system: McA-RH7777 cells stably expressing human apoB100; test: Transmission electron microscopy morphometry of lipid/lipoprotein particles in Golgi and GAV; format: cell-based, rat; settings: EPA-treated cells
# Procedure: The samples were processed for transmission electron microscopy as previously described (Tran et al., 2002). Single and serial thin sections (silver-gold interference colors) were visualized in a Hitachi H-7000 transmission electron microscope, and captured at a range of negative magnifications (8,000-120,000 times). Panoramic tiling was used to capture large fields. The 3D model was prepared from Golgi fields from 7 consecutive serial images (positive magnification=70,000 times), by the method previously described (Thorne-Tjomsland et al., 1998, Anat. Rec. 250, 381-396), with the following modifications. The serial fields were scanned into Adobe Photoshop 5.5 of an Imac 700 MHz G4 computer. Alignment of consecutive sections by fiducial markers was carried out prior to object-contouring and -separation. Concatenation and volume rendering were done in Synu on an SGI-OS 2, and image capture was with Photoshop on a Macintosh platform. The diameter of electron-dense particles, which represent a combination of lipoprotein particles and lipid droplets, were measured in 40 randomly selected Golgi regions from EPA-treated cells. Negative magnification was 40,000 times and positives were further magnified three times. […]
# [8] = test system: McA-RH7777 cells stably expressing human apoB100; test: Immunofluorescent localization of apoB and Map1LC3; format: cell-based, rat
# [9] = test system: McA-RH7777 cells stably expressing human apoB100; test: Monodansylcadaverine (MDC) labelling of autophagolysosomes; format: cell-based, rat; settings: 0.4 mM, EPA- vs oleate-treated cells
# [10] = test system: McA-RH7777 cells stably expressing human apoB100; test: Tandem mass spectrometry of PC and PE in membranes of subcellular organelles; format: cell-based, rat
# Source text: Subcellular Fractionation—Three subcellular fractions (i.e., ER, fractions 1 through 3; cis/medial Golgi, fractions 4 through 8; distal Golgi, fractions 9 through 15) were obtained from the cell lysates using Nycodenz gradient centrifugation (Hammond and Helenius, 1994, J. Cell Biol. 126, 41-52; Rickwood et al., 1982, Anal. Biochem. 123, 23-31) of the post-nuclear supernatant as previously described (Tran et al., 2002). […] The membrane and lumen preparations from ER (Nycodenz fractions 1 through 3), cis/medial Golgi (fractions 4 through 8), and distal Golgi (fractions 9 through 15) were derived from cells pooled from eight 100-mm dishes. Lipids were extracted from the samples with chloroform/methanol/acetic acid/saturated NaCl/H2O (4:2:0.1:1:2, by volume) in the presence of 230 pmol dimirystoyl (14:0-14:0) PC and 110 pmol dipalmitoyl (16:0-16:0) PE as internal standards. Aliquots of lipid extracts were applied to tandem mass spectrometry, and the molecular species (i.e. fatty acid composition) of PC and PE was determined by daughter ion analysis in the negative ion mode as previously described (Tran et al., 2002; DeLong et al., 1999, J. Biol. Chem. 274, 29683-29688). The integrated area under the peak of each molecular species was quantified by comparing with those of internal standards.
# [11] = test system: man; settings: cited from earlier work
# [12] = test system: monkeys; settings: cited from earlier work
smiles,measurement,setting,value
"CC/C=C\C/C=C\C/C=C\C/C=C\C/C=C\CCCC(=O)O [EPA, eicosapentaenoic acid]",amount of [^35S] incorporated into apoB100 at the end of a 30 min pulse,[1],identical
same,incorporation of [^3H]glycerol into cellular TG,[2],higher
same,incorporation of [^3H]glycerol into secreted PC,[2],not affected
same,synthesis or secretion of apoA-I,[3],relatively unaffected
same,rate at which the membrane-associated [^35S]-apoB100 exited the ER,"[4]; 20 min pulse, chase 0, 15, 30 and 45 min",−1.29±0.38 % of total/min
same,rate at which the membrane-associated [^35S]-apoB100 appeared in the distal Golgi,"[4]; 20 min pulse, chase 0-45 min",0.83±0.10 % of total/min
same,rates with which [^35S]-apoB100 transited through the cis/medial Golgi,[4]; EPA vs oleate treatment,similar
same,activity of phosphatidate phosphohydrolase-1,[5],did not affect
same,activity of MTP,[6],did not affect
same,population of >80 nm particles in cis- (saccules 1-3) and trans-end (saccules 4-6) of Golgi plus TGN,[7],greatly increased
same,"autophagy (penetration of Map1LC3 staining into the apoB100-rich perinuclear area, partial co-localization with apoB100)","[8]; 0.4 mM, 4 h, in comparison to controls",induced autophagy
same,co-localization of apoB100 and Map1LC3,[8]; EPA- vs oleate-treated cells,more pronounced
same,formation of autophagolysosomes (enlargement of dense vacuoles reactive with MDC),[9],more prominent
same,total PC mass as compared with untreated control,[10],unaffected
same,plasma VLDL-TG concentration,[11],reduces
same,plasma VLDL-apoB100 concentration,[11],reduces
same,plasma VLDL-TG concentration,[12],reduces
same,plasma VLDL-apoB100 concentration,[12],reduces
